{
  "source": "paper PMC7819943",
  "about": "“Rice protein-binding microarrays: a tool to detect cis-acting elements near promoter regions in rice”",
  "note": "The list shows a part of the results.",
  "data": [
    {"target": "T1, OsSMF1 (Oryza sativa, UniProt Q6ZLB0 1-436)", "T1 sequence": "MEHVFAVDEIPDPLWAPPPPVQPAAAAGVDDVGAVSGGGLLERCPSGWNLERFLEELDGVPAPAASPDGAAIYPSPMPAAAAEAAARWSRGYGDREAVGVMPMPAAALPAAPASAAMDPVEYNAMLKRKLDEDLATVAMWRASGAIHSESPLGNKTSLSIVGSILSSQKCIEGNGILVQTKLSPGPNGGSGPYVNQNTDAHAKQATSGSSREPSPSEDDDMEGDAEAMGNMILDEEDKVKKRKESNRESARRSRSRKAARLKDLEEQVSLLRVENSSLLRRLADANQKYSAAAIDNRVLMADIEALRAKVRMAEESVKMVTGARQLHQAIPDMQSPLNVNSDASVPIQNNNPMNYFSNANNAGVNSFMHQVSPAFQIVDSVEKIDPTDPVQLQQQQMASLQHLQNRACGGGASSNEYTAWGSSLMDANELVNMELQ", "assay": "protein-binding microarray (RPBM); PBS, 2% BSA, 51.3 ng/ul salmon testes DNA, 50 uM zinc acetate, 200 nM TF, 25 C, 1 h; high values mean tight binding", "conditions": "protein: recombinant; tags: N-terminal polyhistidine and DsRed monomer fusion (pET32a); chain copies: 2; label: CyDye5-dUTP incorporated in the synthesized complementary strand; 3' TTTTT single-stranded linker to array surface; dsDNA, one strand shown", "procedure,_shortened": "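An Axon 4000B scanner gave the binding signal as per-feature fluorescence intensity in arbitrary units. This followed washing of a custom Agilent array that had been incubated for 1 h at 25 °C with 200 nM protein in PBS, 2% BSA, salmon testes DNA and 50 µM zinc acetate. The proteins were transcription factors fused at the N-terminus to polyhistidine and DsRed, expressed in E. coli BL21-CodonPlus and purified on Ni–NTA.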", "values": [
      {"sequence": "GCCGCCGCCGCCGGAGAAGATGATGGTGCCGCTGGATCCGCGGAGTCACCTAGTGCAG", "binding signal": "43500 fluorescence intensity (a.u.)"},
      {"sequence": "CGAGCTCTGTTCGTACCGCGCGCTCCGGTGCGGAGTGGTTCGGAGTCACCTAGTGCAG", "binding signal": "3230 fluorescence intensity (a.u.)"},
      {"sequence": "ACCGGATTAGCCGGTCGGTGACGCTCCATGATTTGGCGCTCGGAGTCACCTAGTGCAG", "binding signal": "4130 fluorescence intensity (a.u.)"},
      {"sequence": "GAGCTTATATAGCTGAAACAGGGGAAGGAGGATGGGGTTTCGGAGTCACCTAGTGCAG", "binding signal": "3390 fluorescence intensity (a.u.)"},
      {"sequence": "AAAATTAAAACCGATTCAAACACGGATGACGTACCAAAATCGGAGTCACCTAGTGCAG", "binding signal": "3260 fluorescence intensity (a.u.)"},
      {"sequence": "GGGCCCAGCAGGTTCCTAGTAGACTTCGTCGTAGTGGGACCGGAGTCACCTAGTGCAG", "binding signal": "8310 fluorescence intensity (a.u.)"},
      {"sequence": "CTATTGTATGAATTGGCTATAGATGATTTGGAGGCAGTAGCGGAGTCACCTAGTGCAG", "binding signal": "3800 fluorescence intensity (a.u.)"},
      {"sequence": "TTGCAAACACAGGAATTACCGTTTGATTGAACCACAGGAACGGAGTCACCTAGTGCAG", "binding signal": "12300 fluorescence intensity (a.u.)"},
      {"sequence": "GTCACGCACTCACACTCAGCCTCCTCACGTCACGTCTGGCCGGAGTCACCTAGTGCAG", "binding signal": "4090 fluorescence intensity (a.u.)"},
      {"sequence": "CCTTTCTTGGCCGCCACGTGCCACTGTCTCTCCGTCGCCTCGGAGTCACCTAGTGCAG", "binding signal": "10800 fluorescence intensity (a.u.)"},
      {"sequence": "TAATTAATTGAGTCATGCACATGTCTCTTTAATTTGGCTTCGGAGTCACCTAGTGCAG", "binding signal": "4910 fluorescence intensity (a.u.)"},
      {"sequence": "GCTCCGGTTTCCCAAGGGAATGGAAGTTCAGATACAAAGCCGGAGTCACCTAGTGCAG", "binding signal": "18700 fluorescence intensity (a.u.)"},
      {"sequence": "GAGATCGAACATCGATGCAGCCCCGCGTCAGGTGCCAAGTCGGAGTCACCTAGTGCAG", "binding signal": "3510 fluorescence intensity (a.u.)"},
      {"sequence": "TCAATGGCTAGCGAATGGCATCTTGATCACAACATACACTCGGAGTCACCTAGTGCAG", "binding signal": "3630 fluorescence intensity (a.u.)"},
      {"sequence": "GATACTACACGTCTCTGCACACGCGTCAGCAAGCTCCTGTCGGAGTCACCTAGTGCAG", "binding signal": "5750 fluorescence intensity (a.u.)"},
      {"sequence": "GCTGCACGGCCGCGGCGTGGCGCTGACGGCGACGGTGAGGCGGAGTCACCTAGTGCAG", "binding signal": "5740 fluorescence intensity (a.u.)"},
      {"sequence": "CTAACCCGTCCAGTGAAAGCCCAATCACAGTCATGGGCTGCGGAGTCACCTAGTGCAG", "binding signal": "3230 fluorescence intensity (a.u.)"},
      {"sequence": "ACGATGAGAGCCTCCCCGAGCGCGCCCACCTCCCACGGCTCGGAGTCACCTAGTGCAG", "binding signal": "3200 fluorescence intensity (a.u.)"},
      {"sequence": "ACTCACATATATAAATACACACACTGAGCACCCTCGCAGGCGGAGTCACCTAGTGCAG", "binding signal": "3420 fluorescence intensity (a.u.)"},
      {"sequence": "CTTTACCTTTCCTGCAAGGTAAACCATCTCGCGTCAGCTTCGGAGTCACCTAGTGCAG", "binding signal": "4880 fluorescence intensity (a.u.)"},
      {"sequence": "AACAATTATATTTTATTCTCTTATGTCACGCCTTAAGCTTCGGAGTCACCTAGTGCAG", "binding signal": "3580 fluorescence intensity (a.u.)"},
      {"sequence": "TCTTGCGGACGGGACACGTACGACGGCAGCCAAGCCAGCCCGGAGTCACCTAGTGCAG", "binding signal": "5560 fluorescence intensity (a.u.)"},
      {"sequence": "GGCTAAGCCTGATGTTGTTGGAGGATGTGTGATCTGTCATCGGAGTCACCTAGTGCAG", "binding signal": "4360 fluorescence intensity (a.u.)"},
      {"sequence": "AGCAGAGAAAATTAGGCAAGCTCCACGTGTCGGGCTTCCTCGGAGTCACCTAGTGCAG", "binding signal": "13900 fluorescence intensity (a.u.)"},
      {"sequence": "GGCCTGGCCCAACCCATCACGGAGACAACAGTCTTCAAATCGGAGTCACCTAGTGCAG", "binding signal": "28900 fluorescence intensity (a.u.)"},
      {"sequence": "CGTACAACGGGTGTGTGTTTGGAGCCTGTAGCATGTGGTGCGGAGTCACCTAGTGCAG", "binding signal": "4250 fluorescence intensity (a.u.)"},
      {"sequence": "GCCCAGCTTGCGCACGGGGAGGGGAGGGGAGAATGGGCCGCGGAGTCACCTAGTGCAG", "binding signal": "5540 fluorescence intensity (a.u.)"},
      {"sequence": "CACTAATGGAGTTGTTAGTGACAGGGCAGCTGCTCCTCTGCGGAGTCACCTAGTGCAG", "binding signal": "6620 fluorescence intensity (a.u.)"},
      {"sequence": "CATATGGACCCCACCACTCGCGGACCAACATGTCAGTGATCGGAGTCACCTAGTGCAG", "binding signal": "3370 fluorescence intensity (a.u.)"},
      {"sequence": "TCCCAACTAACACGAGTGGTCACTAGTCAGCACCATGGATCGGAGTCACCTAGTGCAG", "binding signal": "4570 fluorescence intensity (a.u.)"},
      {"sequence": "AATAACACTATATACGTCACTCTTGGGTGACATGGATGGCCGGAGTCACCTAGTGCAG", "binding signal": "7270 fluorescence intensity (a.u.)"},
      {"sequence": "CGAACCTGTCTACATCGCCCGTGTCTTGTGCGTTTGCTCTCGGAGTCACCTAGTGCAG", "binding signal": "3150 fluorescence intensity (a.u.)"},
      {"sequence": "GAACACAATTACGTTGCAGTATTCCCTTCGTTCTAAAATACGGAGTCACCTAGTGCAG", "binding signal": "3590 fluorescence intensity (a.u.)"},
      {"sequence": "CACATAAATAATAATAAAATGTGGGACCCACGTGGGCCCCCGGAGTCACCTAGTGCAG", "binding signal": "10400 fluorescence intensity (a.u.)"},
      {"sequence": "CTCTTCTCTTCTCTACGTGGAGCTTACAAGTGACAGATACCGGAGTCACCTAGTGCAG", "binding signal": "3900 fluorescence intensity (a.u.)"},
      {"sequence": "GCAACGATAATCTCTTCTGGTGACGTGGTCATCAATACCTCGGAGTCACCTAGTGCAG", "binding signal": "16800 fluorescence intensity (a.u.)"},
      {"sequence": "GTCTACCGGCCTAGGCTGGCTGAGTTGGAAAGAATTCAATCGGAGTCACCTAGTGCAG", "binding signal": "4320 fluorescence intensity (a.u.)"},
      {"sequence": "GCGGCGAAGCAGGGAGGAGGGAGGAGGAGGGGCGGCGGTGCGGAGTCACCTAGTGCAG", "binding signal": "5300 fluorescence intensity (a.u.)"},
      {"sequence": "GATATGTACGTCAGCCTCATGTATATCAAAACTACTCAGGCGGAGTCACCTAGTGCAG", "binding signal": "6580 fluorescence intensity (a.u.)"},
      {"sequence": "TACTACCACTTGCCCTGACGTACGTACTACACGCGCCCCGCGGAGTCACCTAGTGCAG", "binding signal": "4780 fluorescence intensity (a.u.)"},
      {"sequence": "CTTGCGTCCTGTGTTTGAAGAGAAAACAATCACGGACAGGCGGAGTCACCTAGTGCAG", "binding signal": "4760 fluorescence intensity (a.u.)"},
      {"sequence": "CGCACGCAGAGACCGGTGGTAGTGTCGTCACACTGCCGTTCGGAGTCACCTAGTGCAG", "binding signal": "3840 fluorescence intensity (a.u.)"}
    ]}
  ]
}
